About 17,000 (5.5%) of roughly 310,000 compounds were called active. The inconclusive results got no clear call from the source; some entries with a clear call stand among them for comparison. The call rests on the fitted dose curve; in most records, active means well fitted inhibition curve with a large enough effect; inconclusive means small, poorly fitted or top-dose-only effect, or effect the other way; inactive means no such curve, though single readings can be large or run the other way. A potency beside an inconclusive call is a rough fit, not a confirmed value.
Target: Nuclear receptor ROR-gamma (Mus musculus) (UniProt P51450)
Experiment: qHTS for inhibitors of ROR gamma transcriptional activity; further: nearly all actives have a fitted effect of over 60% in size
Conditions: Drosophila S2 Gal4-RORgamma UAS-luciferase reporter, 20 h; activity change, negative = inhibition: at 53.6 µM (top of the series)
Method in brief: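 Compounds are pin-transferred onto Drosophila Schneider cells expressing a copper-inducible Gal4–ROR gamma transactivation domain fusion. After 1 hr, copper sulfate is added to 700 uM final; luciferase is read 20 hr later.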
On the % scale 0 is the no-effect control and ±100 the full control effect; potency means the concentration at half of the fitted maximal effect.

Chains of the proteins cited; added tags and fusions are not shown. Lines headed by an entry give the natural chain unless they say otherwise; changes in a name come on top.
UniProt P51450: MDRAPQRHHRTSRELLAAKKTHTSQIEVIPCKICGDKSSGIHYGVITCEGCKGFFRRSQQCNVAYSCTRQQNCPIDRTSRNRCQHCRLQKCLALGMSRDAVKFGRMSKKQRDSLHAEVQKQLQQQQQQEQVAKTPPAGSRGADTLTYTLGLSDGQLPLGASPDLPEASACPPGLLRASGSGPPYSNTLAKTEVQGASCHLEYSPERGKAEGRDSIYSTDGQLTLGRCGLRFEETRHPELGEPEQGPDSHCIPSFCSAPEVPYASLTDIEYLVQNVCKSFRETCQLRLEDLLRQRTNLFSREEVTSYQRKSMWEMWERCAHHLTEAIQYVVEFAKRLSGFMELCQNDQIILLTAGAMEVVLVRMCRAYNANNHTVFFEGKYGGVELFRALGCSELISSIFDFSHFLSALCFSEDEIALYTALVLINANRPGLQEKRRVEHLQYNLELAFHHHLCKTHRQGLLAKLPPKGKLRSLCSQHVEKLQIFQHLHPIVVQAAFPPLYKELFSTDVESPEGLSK

| Structure (SMILES) | Potency | activity change, negative = inhibition |
| --- | --- | --- |
| Cc1ccc2nc(-c3ccc(NC(=O)c4ccco4)cc3)[nH]c2c1 | inconclusive: 28.2 µM [inhibitor, single point] | – |
| COCCNC(=O)c1ccc2c(=O)n(Cc3ccco3)c(SCC(=O)Nc3ccc(OC)cc3OC)nc2c1 | inconclusive: 22.4 µM [inhibitor, single point] | – |
| CC(=O)N1CCN(c2ccc(NC(=S)NC(=O)/C=C/c3ccccc3)cc2)CC1 | – | inactive: -32.9% |
| CC(C)CC(=O)Nc1ccc(-c2cn3ccsc3n2)cc1 | inconclusive: 35.5 µM [inhibitor, single point] | – |
| COc1cc(/C=N/NC(N)=S)cc(Br)c1OCc1ccccc1F | active: 1 µM | – |
| CN(Cc1ccccc1)Cc1c(O)ccc2ccccc12 | – | inactive: -19.2% |
| Cc1ccc(C(=O)N/N=C\c2ccc(-c3ccc([N+](=O)[O-])cc3)o2)cn1 | inconclusive: 8.91 µM [inhibitor, partial curve] | – |
| Cc1nc2c(O)cccc2cc1CO | active: 10 µM | – |
| CC1Cc2nc(SCC(=O)c3ccccc3)n(Cc3ccccc3)c(=O)c2S1 (stereo unspecified) | – | inactive: 55.7% |
| CCOC(=O)CNc1c(-c2ccccc2)nc2ccc(Cl)cn12 | inconclusive: 14.1 µM [inhibitor, single point] | – |
| CCN1CCc2c(C#N)c(N3CCOCC3)nc(NCc3ccccc3)c2C1 | – | inactive: -2.32% |
| CCOC(=O)Cc1csc(-n2sc3ccccc3c2=O)n1 | active: 11.2 µM | – |
| Cc1ccc2nc(SC(C(=O)c3ccccc3)c3ccccc3)nc(C)c2c1 (stereo unspecified) | inconclusive: 2.24 µM [activator, partial curve] | – |
| COc1ccc(S(=O)(=O)n2c(C)nc3ccccc32)cc1C | inconclusive: 20 µM [inhibitor, single point] | – |
| Fc1ccc(Br)cc1/C=N/n1cnnc1 | – | inactive: -8.64% |
| Cc1ccc(S(=O)(=O)c2c(N)n(CCC(C)C)c3nc4ccccc4nc23)cc1 | inconclusive: 31.6 µM [activator, single point] | – |
| COc1cccc(CNS(=O)(=O)c2ccc3c(c2)N(C)CCO3)c1 | inconclusive: 35.5 µM [activator, single point] | – |
| CC(=O)N/N=C/c1ccc([N+](=O)[O-])o1 | inconclusive: 14.1 µM [inhibitor, single point] | – |
| CCOC(=O)C1CCCN(c2c(NCCc3cccc(C)c3)c(=O)c2=O)C1 (stereo unspecified) | – | inactive: 1.49% |
| Cc1ccc(NCC(=O)N/N=C\c2ccc([N+](=O)[O-])o2)cc1 | inconclusive: 0.562 µM [inhibitor, partial curve, poor fit] | – |
| Cc1ccc(/C=N/Nc2nc3ccccc3s2)o1 | active: 8.91 µM | – |
| CC(C)C1S/C(=N/N=C/c2ccco2)NC1=O (stereo unspecified) | active: 0.199 µM | – |
| COc1ccc(CC(=O)NNS(=O)(=O)c2ccc(F)cc2)cc1OC | inconclusive: 11.2 µM [activator, partial curve] | – |
| CCNC(=S)N/N=C/c1c(Cl)cccc1Cl | active: 2.51 µM | – |
| COc1ccc(N(CC(=O)NCc2ccc(C)cc2)S(=O)(=O)c2c(C)[nH]c(=O)[nH]c2=O)cc1 | – | inactive: -9.2% |
| CCN(c1ccccc1)S(=O)(=O)c1ccc2c(c1)C(C)(C)C(=O)N2C | inconclusive: 7.94 µM [inhibitor, partial curve] | – |

Look-ups from the list.
Value of CCOC(=O)CNc1c(-c2ccccc2)nc2ccc(Cl)cn12 under Potency: inconclusive: 14.1 µM [inhibitor, single point]
Value of COc1ccc(CC(=O)NNS(=O)(=O)c2ccc(F)cc2)cc1OC under Potency: inconclusive: 11.2 µM [activator, partial curve]
Value of CC(C)CC(=O)Nc1ccc(-c2cn3ccsc3n2)cc1 under Potency: inconclusive: 35.5 µM [inhibitor, single point]

More records follow:

| Structure (SMILES) | Potency | activity change, negative = inhibition |
| --- | --- | --- |
| Cc1ccc(CN2CCNC(=O)C2CC(=O)NCCCn2ncc3ccccc32)o1 (stereo unspecified) | – | inactive: 9.44% |
| CC(C)c1cc(C(=O)Nc2cc(Br)ccc2O)no1 | inconclusive: 15.8 µM [activator, partial curve] | – |
| CC(C)NC(=O)CN1C(=O)c2ccccc2S1(=O)=O | – | inactive: 1.44% |
| O=C(COc1ccccc1)N(Cc1cc2ccccc2[nH]c1=O)CC1CCCO1 (stereo unspecified) | inconclusive: 7.94 µM [activator, partial curve] | – |
| Cc1csc(-c2coc3cc(O)cc(C)c3c2=O)n1 | inconclusive: 17.8 µM [inhibitor, single point] | – |
| Cc1ccc2nc(NC(=O)c3cccs3)sc2c1 | inconclusive: 15.8 µM [inhibitor, partial curve, poor fit] | – |
| COCCN(C(=S)Nc1ccc(C)cc1C)C(C)c1cccs1 (stereo unspecified) | inconclusive: 17.8 µM [inhibitor, single point] | – |
| O=C(CCS(=O)(=O)c1ccccc1)N1CCN(c2cccc(C(F)(F)F)c2)CC1 | inconclusive: 12.6 µM [activator, partial curve] | – |
| CCc1ccc(NC(=S)Nc2ccc3cn[nH]c3c2)cc1 | inconclusive: 35.5 µM [inhibitor, single point] | – |
| Cn1c(=O)n(Cc2ccccc2F)c2ccccc21 | – | inactive: -6.29% |
| Nc1ccc(-c2nc3cc([N+](=O)[O-])ccc3o2)cc1 | inconclusive: 3.55 µM [inhibitor, single point] | – |
| COc1ccc(CC(=O)Nc2cccc(-c3nnc(-c4ccccc4)o3)c2)cc1OC | inconclusive: 5.62 µM [activator, single point] | – |
| O=C(Nc1ccc2c(c1)OCO2)c1ccc2nc[nH]c2c1 | inconclusive: 3.55 µM [activator, single point] | – |
| CCCN(CCC)S(=O)(=O)c1ccc(C(=O)Nc2nnc(-c3cccc(OC)c3)o2)cc1 | active: 0.398 µM | – |
| CCOC(=O)c1cc2ccc(OC(=O)c3ccco3)cc2oc1=O | – | inactive: 5.02% |
| O=C(Cc1ccc(S(=O)(=O)N2CCCCC2)s1)Nc1ccc(F)cc1F | inconclusive: 20 µM [activator, partial curve, poor fit] | – |
| CN1C(C(=O)NCc2ccc(OC(F)(F)F)cc2)CC2Cn3c(nc4cc5ccccc5cc43)C21 (stereo unspecified) | – | inactive: 1.1% |
| CCCOc1ccc(C(=O)C(CN2CCCC2)c2ccccc2)cc1 (stereo unspecified) | inconclusive: 28.2 µM [inhibitor, single point] | – |
| CNC(=O)COc1ccc(-c2nn(C)c(=O)c3ccccc23)cc1 | – | inactive: -31.6% |
| O=C(Nc1nnc(SCc2ccc(F)cc2)s1)c1ccccn1 | active: 0.794 µM | – |
| Cc1cc(O)c(S(=O)(=O)c2ccccc2)c(C)c1NS(=O)(=O)c1ccccc1 | – | inactive: -15.4% |
| CCNC(=S)N1CCc2cc(OC)c(OC)cc2C1COc1ccc(OC)cc1 (stereo unspecified) | – | inactive: 5.82% |
| O=C(NC(=S)Nc1ccccc1)c1cc(-c2ccccc2)nc2ccccc12 | active: 0.282 µM | – |
| COc1ccccc1C(=O)Nc1cc(Cl)ccc1-n1cncn1 | active: 11.2 µM | – |
| CCOC(=O)C1(Cc2ccc(OC)cc2)CCN(C(=O)c2sc(C)nc2C)CC1 | inconclusive: 22.4 µM [activator, single point] | – |
| CCOC(=O)N1CCC(N(C(=O)Nc2ccc(CC)cc2)C(C)CC)CC1 (stereo unspecified) | inconclusive: 17.8 µM [activator, partial curve, poor fit] | – |

| Structure (SMILES) | Potency | activity change, negative = inhibition |
| --- | --- | --- |
| O=C1C(C=NCc2ccccn2)=C(O)c2ccccc21 | active: 2.51 µM | – |
| COc1ccc(NC(=S)NC(=O)c2ccccc2Cl)cc1 | active: 6.31 µM | – |
| C#CCNC(=O)C1=C[C@H](C2CCCCC2)C[C@H](OCc2ccc(CO)cc2)O1 | inconclusive: 11.2 µM [inhibitor, single point] | – |
| N#CCCn1c(=O)c(-c2ccc(Cl)cc2)nc2cnc(N3CCNCC3)nc21 | inconclusive: 35.5 µM [inhibitor, single point] | – |
| CCCCn1c(=S)[nH]c2ccccc2c1=O | active: 2.82 µM | – |
| Cc1ccccc1OCc1nc(-c2ccc(Br)o2)no1 | inconclusive: 17.8 µM [activator, partial curve] | – |
| O=C1CN(C(=O)c2ccco2)c2ccccc2N1 | – | inactive: 19.4% |
| CC1Cc2cc(S(=O)(=O)N3CCC(C(=O)N(C)Cc4ccccc4)CC3)ccc2N1C(=O)C1CC1 (stereo unspecified) | – | inactive: 24.1% |
| O=C1c2sc3nc4n(c(=O)c3c2CCC1Br)CCCCC4 (stereo unspecified) | active: 10 µM | – |
| CCOCC(=O)Nc1cccc(OC)c1 | inconclusive: 35.5 µM [inhibitor, single point] | – |
| O=C(COC(=O)CCCSc1nc2ccccc2[nH]1)Nc1ccc(Oc2ccccc2)cc1 | inconclusive: 22.4 µM [activator, single point] | – |
| CCOc1cc(/C=C2/C(=O)ON=C2C)ccc1OCc1ccccc1 | inconclusive: 35.5 µM [inhibitor, single point] | – |
| CCc1cc2c(N3CCN(C(=O)c4ccco4)CC3)ncnc2s1 | inconclusive: 12.6 µM [activator, partial curve] | – |
| Cc1ccc(S(=O)(=O)Cn2nnnc2C(C(C)C)N2CCN(c3nc4ccccc4s3)CC2)cc1 (stereo unspecified) | inconclusive: 12.6 µM [activator, single point] | – |
| Cc1cnc(CNc2ncnc3ccc(-c4ccoc4)cc23)cn1 | – | inactive: 14.7% |
| O=C1CC(Sc2nnc(-c3ccccc3)o2)C(=O)N1c1ccccc1 (stereo unspecified) | active: 1.26 µM | – |
| COc1ccc(CN2CCN(C(=O)c3cc(OC)c(OC)c(OC)c3)CC2)cc1OC | inconclusive: 15.8 µM [inhibitor, single point] | – |
| CCOC(=O)c1ccccc1NC(=O)Cn1cnc2c(cnn2C(C)(C)C)c1=O | inconclusive: 35.5 µM [activator, single point] | – |
| CCC1Cc2cc(O)ccc2C2=C1c1ccc(O)cc1CC2CC (stereo unspecified) | inconclusive: 11.2 µM [inhibitor, partial curve] | – |
| COc1ccccc1CNC(=O)c1cc2c(C)nn(Cc3ccc(F)cc3)c2s1 | inconclusive: 10 µM [activator, partial curve] | – |
| CN(NC(=O)c1ccccc1)c1ncc(C(F)(F)F)cc1Cl | – | inactive: 0.749% |
| O=S(=O)(c1ccc(-c2csc(Nc3ccc(F)cc3)n2)cc1)N1CCCC1 | inconclusive: 11.2 µM [activator, partial curve] | – |
| COC(=O)C1=NN(c2ccc(OC)cc2)C2C(=O)N(c3ccccc3OC)C(=O)C12 (stereo unspecified) | – | inactive: -13.7% |
| Cc1ccc(NC(=S)N2CCCC(c3nc4ccccc4[nH]3)C2)cc1 (stereo unspecified) | inconclusive: 35.5 µM [inhibitor, single point] | – |
